The record followed here is patent US9585387B1, “PEHAM dendrimers for use in agriculture” (Starpharma Pty Ltd, priority 2009, dated 2017).

This series can be described thus: Soil column migration of Imidacloprid (Example 24 Part B). The note with it: for Total amount of active in column: sum of three sections.

Take `CCC(COCC(O)CN(CC(=O)[O-])CC(=O)[O-])(COCC(O)CN(CC(=O)[O-])CC(=O)[O-])COCC(O)CN(CC(=O)[O-])CC(=O)[O-].CCCC[N+](CCCC)(CCCC)CCCC.CCCC[N+](CCCC)(CCCC)CCCC.CCCC[N+](CCCC)(CCCC)CCCC.CCCC[N+](CCCC)(CCCC)CCCC.CCCC[N+](CCCC)(CCCC)CCCC.CCCC[N+](CCCC)(CCCC)CCCC` (centres unmarked) [Example 12, [(C)=TMPTGE; (FF)=Et; (IF1)=OH; (BR1)=IDA; (TF)=CO2NBu4; G=1]]: the “Total amount of active in column” value is recorded as 4.65 mg. For the same compound, the “Amount of active per weight of sand” value (Lower section) came to 0.83 mg/g × 100. The Amount of active (Lower section of sand column) stood at 1.85 mg. Further, the “Amount of active per weight of sand” value (Middle section) was found to be 0.39 mg/g × 100. Further, the Amount of active (Middle section of sand column) is 0.9 mg. Besides, the “Amount of active per weight of sand” value (Top section) was 0.97 mg/g × 100. The Amount of active (Top section of sand column) came to 1.9 mg.

For `CCC(COCC(O)CN(CC(=O)[O-])CC(=O)[O-])(COCC(O)CN(CC(=O)[O-])CC(=O)[O-])COCC(O)CN(CC(=O)[O-])CC(=O)[O-].[Na+].[Na+].[Na+].[Na+].[Na+].[Na+]` (centres unmarked) [Example 10, [(C)=TMPTGE; (FF)=Et; (IF1)=OH; (BR1)=IDA; (TF)=CO2Na; G=1]], the “Total amount of active in column” value came to 4.65 mg. The “Amount of active per weight of sand” value (Lower section) is listed as 0.60 mg/g × 100. For the setting “Lower section of sand column”, the Amount of active is listed as 1.15 mg. For the same compound, for the setting “Middle section”, the “Amount of active per weight of sand” value is on record as 0.53 mg/g × 100. Under “Middle section of sand column”, the Amount of active turned out to be 1.2 mg. For the same compound, the “Amount of active per weight of sand” value (Top section) amounted to 1.09 mg/g × 100. This compound displayed an Amount of active (Top section of sand column) of 2.3 mg.

With `CCC(COCC(O)CN(CCO)CCO)(COCC(O)CN(CCO)CCO)COCC(O)CN(CCO)CCO` (centres unmarked) [Example 2, [(C)=TMPTGE; (FF)=Et; (IF1)=OH; (BR1)=DEA; (TF)=OH; G=1]], the “Total amount of active in column” value came out at 5.0 mg. For the setting “Lower section”, the “Amount of active per weight of sand” value is 0.90 mg/g × 100. This compound came in with an Amount of active (Lower section of sand column) of 1.9 mg. Where the note is “Middle section”, the “Amount of active per weight of sand” value is reported as 0.73 mg/g × 100. The compound also gave an Amount of active (Middle section of sand column) of 1.7 mg. Further, for the setting “Top section”, the “Amount of active per weight of sand” value is recorded as 0.65 mg/g × 100. The Amount of active (Top section of sand column) is given as 1.4 mg.

`CCC(COCC(O)CN(CCN)CCN)(COCC(O)CN(CCN)CCN)COCC(O)CN(CCN)CCN` (centres unmarked) [Example 14, [(C)=TMPTGE; (IF1)=OH; (BR1)=DETA; (TF)=Primary NH2; G=1]]: the “Total amount of active in column” value came out at 4.7 mg. Moreover, the “Amount of active per weight of sand” value (Lower section) turned out to be 0.87 mg/g × 100. Further, under “Lower section of sand column”, the Amount of active is 1.8 mg. Besides, the “Amount of active per weight of sand” value (Middle section) is listed as 0.75 mg/g × 100. In addition, the Amount of active (Middle section of sand column) was 1.7 mg. In addition, under “Top section”, the “Amount of active per weight of sand” value came to 0.56 mg/g × 100. Further, the Amount of active (Top section of sand column) was found to be 1.2 mg.

As for `O=[N+]([O-])NC1=NCCN1Cc1ccc(Cl)nc1` [Imidacloprid, reference compound], the “Total amount of active in column” value worked out at 5.1 mg. Besides, the “Amount of active per weight of sand” value (Lower section) is 0.18 mg/g × 100. For the same compound, where the note is “Lower section of sand column”, the Amount of active was found to be 0.4 mg. Besides, the “Amount of active per weight of sand” value (Middle section) was 0.95 mg/g × 100. The Amount of active (Middle section of sand column) came out at 2.2 mg. Besides, the “Amount of active per weight of sand” value (Top section) stood at 1.15 mg/g × 100. For the setting “Top section of sand column”, the Amount of active was 2.5 mg.
